In publication PMC4107866:

Biological target: 3XFLAG-TEV-CBP-Cul3 (human) (UniProt Q13618)
Test: affinity purification with mass spectrometry; tandem affinity purification of 3XFLAG-TEV-CBP-Cul3 from lysate of transfected HEK293 cells (RIPA buffer): anti-FLAG M2 beads, TEV cleavage, calmodulin beads, elution with EGTA; MudPIT LC/MS-MS; proteins also found with 3XFLAG-TEV-CBP-actin removed

binding: binds
B1: KLHL5 (protein, UniProt Q96PQ7 1-755)
chain: MNVIYFPLHIFVVYSRAYTSLVLVGCTNLCAVLFARCLDDHLVSLRMSGSRKEFDVKQILKIRWRWFGHQASSPNSTVDSQQGEFWNRGQTGANGGRKFLDPCSLQLPLASIGYRRSSQLDFQNSPSWPMASTSEVPAFEFTAEDCGGAHWLDRPEVDDGTSEEENESDSSSCRTSNSSQTLSSCHTMEPCTSDEFFQALNHAEQTFKKMENYLRHKQLCDVILVAGDRRIPAHRLVLSSVSDYFAAMFTNDVREARQEEIKMEGVEPNSLWSLIQYAYTGRLELKEDNIECLLSTACLLQLSQVVEACCKFLMKQLHPSNCLGIRSFADAQGCTDLHKVAHNYTMEHFMEVIRNQEFVLLPASEIAKLLASDDMNIPNEETILNALLTWVRHDLEQRRKDLSKLLAYIRLPLLAPQFLADMENNVLFRDDIECQKLIMEAMKYHLLPERRPMLQSPRTKPRKSTVGTLFAVGGMDSTKGATSIEKYDLRTNMWTPVANMNGRRLQFGVAVLDDKLYVVGGRDGLKTLNTVECYNPKTKTWSVMPPMSTHRHGLGVAVLEGPMYAVGGHDGWSYLNTVERWDPQARQWNFVATMSTPRSTVGVAVLSGKLYAVGGRDGSSCLKSVECFDPHTNKWTLCAQMSKRRGGVGVTTWNGLLYAIGGHDAPASNLTSRLSDCVERYDPKTDMWTAVASMSISRDAVGVCLLGDKLYAVGGYDGQAYLNTVEAYDPQTNEWTQVAPLCLGRAGACVVTVKL

No constants are given. Whether binding was seen depends on the method and setting. In cells and extracts the contact can be indirect. A yes stands for co-enrichment or nearness to the bait. Other partners may have been found.
